Results reported in paper PMC8976408.
Results are given in words; binding and its absence hold for the method and conditions named. In cells and extracts the contact can be indirect. Some entries that bind do so weakly or less than the wild type.

Chains of the proteins cited; added tags and fusions are not shown. Residues count along the entry.
UniProt Q07021, residues 74-282: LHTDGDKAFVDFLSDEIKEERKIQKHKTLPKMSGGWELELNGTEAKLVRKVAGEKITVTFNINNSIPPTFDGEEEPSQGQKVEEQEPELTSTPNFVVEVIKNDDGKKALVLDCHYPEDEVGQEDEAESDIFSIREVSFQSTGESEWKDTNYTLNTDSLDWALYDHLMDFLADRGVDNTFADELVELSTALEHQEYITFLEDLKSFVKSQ
UniProt P35222: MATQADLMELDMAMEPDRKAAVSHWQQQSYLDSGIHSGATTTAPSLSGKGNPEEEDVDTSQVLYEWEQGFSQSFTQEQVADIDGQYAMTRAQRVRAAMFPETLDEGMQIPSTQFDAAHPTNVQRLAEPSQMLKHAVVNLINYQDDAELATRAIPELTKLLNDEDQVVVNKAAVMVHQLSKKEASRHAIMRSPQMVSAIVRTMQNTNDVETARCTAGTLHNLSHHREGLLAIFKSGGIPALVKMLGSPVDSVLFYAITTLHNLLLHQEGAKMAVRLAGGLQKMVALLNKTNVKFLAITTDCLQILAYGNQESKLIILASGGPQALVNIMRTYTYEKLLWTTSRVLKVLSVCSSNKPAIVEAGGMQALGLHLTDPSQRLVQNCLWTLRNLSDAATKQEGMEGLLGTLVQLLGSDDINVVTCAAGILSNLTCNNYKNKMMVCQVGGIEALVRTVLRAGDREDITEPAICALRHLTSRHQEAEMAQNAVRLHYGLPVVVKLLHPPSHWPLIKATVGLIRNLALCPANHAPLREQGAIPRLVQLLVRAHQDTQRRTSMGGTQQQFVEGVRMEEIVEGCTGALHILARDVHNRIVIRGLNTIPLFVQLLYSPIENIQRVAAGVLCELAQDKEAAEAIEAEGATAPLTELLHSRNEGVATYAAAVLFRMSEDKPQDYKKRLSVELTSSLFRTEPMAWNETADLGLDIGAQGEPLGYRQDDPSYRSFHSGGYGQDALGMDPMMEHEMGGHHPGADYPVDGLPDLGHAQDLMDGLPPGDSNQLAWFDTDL

Target: complement C1q-binding protein (C1QBP) (human (endogenous in TU212 and LCC)) (UniProt Q07021)
Assay: co-IP; endogenous proteins; lysates of ten million cells incubated with 1 μg anti-C1QBP antibody and anti-β-catenin antibody at 4 °C overnight, protein A beads, washed three times with PBS, western blot; cells without any intervention or after overexpressing circMTCL1

binding: binds
Substance: β-catenin (from UniProt P35222 1-781)
